Reference: the supplement of paper PMC6411743
± gives the standard deviation of the averaged measurements. The list shows a part of the results.

Amino acid sequences for entries named in this document (tags omitted). A change or cut given only in a name is not applied to a line headed by its entry.
UniProt O43390: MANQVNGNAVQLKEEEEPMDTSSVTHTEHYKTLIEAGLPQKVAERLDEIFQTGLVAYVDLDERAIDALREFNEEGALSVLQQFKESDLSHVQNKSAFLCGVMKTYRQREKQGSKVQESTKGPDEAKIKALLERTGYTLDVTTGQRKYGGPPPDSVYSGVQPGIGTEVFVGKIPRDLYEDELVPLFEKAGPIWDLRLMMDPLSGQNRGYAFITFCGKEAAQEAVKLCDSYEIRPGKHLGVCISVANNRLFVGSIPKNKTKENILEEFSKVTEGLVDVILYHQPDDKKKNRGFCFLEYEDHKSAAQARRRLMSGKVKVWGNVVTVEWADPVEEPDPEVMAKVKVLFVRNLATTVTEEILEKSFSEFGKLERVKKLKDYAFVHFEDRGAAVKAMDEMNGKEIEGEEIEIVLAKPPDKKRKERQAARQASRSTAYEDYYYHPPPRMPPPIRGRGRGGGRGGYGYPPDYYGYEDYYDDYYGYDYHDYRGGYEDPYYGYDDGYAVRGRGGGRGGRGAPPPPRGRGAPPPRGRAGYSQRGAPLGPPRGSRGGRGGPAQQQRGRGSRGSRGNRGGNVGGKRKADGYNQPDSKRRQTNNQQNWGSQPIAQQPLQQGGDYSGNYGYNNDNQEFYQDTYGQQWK
UniProt O43683: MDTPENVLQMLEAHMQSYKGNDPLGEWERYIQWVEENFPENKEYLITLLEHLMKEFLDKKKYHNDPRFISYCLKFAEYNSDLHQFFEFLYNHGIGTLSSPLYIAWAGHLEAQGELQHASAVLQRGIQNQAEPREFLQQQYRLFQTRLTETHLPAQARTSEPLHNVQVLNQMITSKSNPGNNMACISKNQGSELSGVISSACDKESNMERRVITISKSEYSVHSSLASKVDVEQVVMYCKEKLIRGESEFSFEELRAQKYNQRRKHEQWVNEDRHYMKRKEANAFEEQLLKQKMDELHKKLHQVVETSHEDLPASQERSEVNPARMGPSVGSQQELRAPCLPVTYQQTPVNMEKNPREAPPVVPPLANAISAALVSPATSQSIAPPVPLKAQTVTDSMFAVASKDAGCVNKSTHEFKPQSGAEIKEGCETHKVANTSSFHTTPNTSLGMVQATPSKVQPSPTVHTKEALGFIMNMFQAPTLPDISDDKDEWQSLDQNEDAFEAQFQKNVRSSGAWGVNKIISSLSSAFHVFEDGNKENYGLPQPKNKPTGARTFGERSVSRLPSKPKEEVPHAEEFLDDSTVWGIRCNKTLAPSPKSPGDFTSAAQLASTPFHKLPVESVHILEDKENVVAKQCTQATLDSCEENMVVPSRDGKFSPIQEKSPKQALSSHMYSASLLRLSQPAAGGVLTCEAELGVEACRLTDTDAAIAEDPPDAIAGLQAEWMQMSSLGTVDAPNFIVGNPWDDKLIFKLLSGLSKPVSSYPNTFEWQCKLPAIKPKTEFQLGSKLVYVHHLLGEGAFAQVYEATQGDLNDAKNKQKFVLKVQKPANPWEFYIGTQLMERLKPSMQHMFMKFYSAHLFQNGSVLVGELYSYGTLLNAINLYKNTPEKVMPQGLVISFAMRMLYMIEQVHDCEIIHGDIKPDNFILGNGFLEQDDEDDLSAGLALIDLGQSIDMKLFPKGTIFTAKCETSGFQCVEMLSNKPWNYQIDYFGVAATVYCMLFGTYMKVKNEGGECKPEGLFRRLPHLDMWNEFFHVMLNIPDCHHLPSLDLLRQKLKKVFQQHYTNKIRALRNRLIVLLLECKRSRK
UniProt O00411: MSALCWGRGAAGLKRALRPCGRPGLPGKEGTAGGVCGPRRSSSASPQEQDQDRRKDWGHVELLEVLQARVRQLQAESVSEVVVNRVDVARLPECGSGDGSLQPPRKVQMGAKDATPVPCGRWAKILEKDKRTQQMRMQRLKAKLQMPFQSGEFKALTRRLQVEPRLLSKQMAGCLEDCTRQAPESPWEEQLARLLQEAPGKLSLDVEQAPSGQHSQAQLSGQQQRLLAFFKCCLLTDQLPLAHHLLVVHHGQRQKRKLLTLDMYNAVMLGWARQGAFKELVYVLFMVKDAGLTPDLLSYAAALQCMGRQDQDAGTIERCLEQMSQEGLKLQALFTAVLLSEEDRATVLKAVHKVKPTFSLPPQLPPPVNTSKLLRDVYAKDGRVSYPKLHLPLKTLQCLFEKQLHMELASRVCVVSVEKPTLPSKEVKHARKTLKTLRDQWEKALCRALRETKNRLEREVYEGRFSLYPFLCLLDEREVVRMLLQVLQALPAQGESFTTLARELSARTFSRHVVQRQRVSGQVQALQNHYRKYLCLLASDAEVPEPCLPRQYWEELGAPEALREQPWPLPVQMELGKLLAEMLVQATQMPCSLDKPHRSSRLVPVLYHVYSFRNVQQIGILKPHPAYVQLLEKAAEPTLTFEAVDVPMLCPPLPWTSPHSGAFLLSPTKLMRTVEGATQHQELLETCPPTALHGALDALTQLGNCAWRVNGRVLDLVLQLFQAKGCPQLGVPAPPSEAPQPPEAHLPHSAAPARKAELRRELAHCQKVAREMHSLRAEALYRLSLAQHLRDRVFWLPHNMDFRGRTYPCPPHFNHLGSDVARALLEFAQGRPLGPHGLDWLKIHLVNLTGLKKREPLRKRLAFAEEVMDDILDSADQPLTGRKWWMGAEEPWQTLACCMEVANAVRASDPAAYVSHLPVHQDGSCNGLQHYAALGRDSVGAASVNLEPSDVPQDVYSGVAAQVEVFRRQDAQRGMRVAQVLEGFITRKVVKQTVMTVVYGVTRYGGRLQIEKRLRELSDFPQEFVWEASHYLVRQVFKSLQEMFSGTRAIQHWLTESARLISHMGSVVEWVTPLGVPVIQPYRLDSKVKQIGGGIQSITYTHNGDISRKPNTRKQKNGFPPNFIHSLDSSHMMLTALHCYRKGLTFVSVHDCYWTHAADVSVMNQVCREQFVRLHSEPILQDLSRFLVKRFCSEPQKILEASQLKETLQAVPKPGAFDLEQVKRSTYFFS
UniProt O60508: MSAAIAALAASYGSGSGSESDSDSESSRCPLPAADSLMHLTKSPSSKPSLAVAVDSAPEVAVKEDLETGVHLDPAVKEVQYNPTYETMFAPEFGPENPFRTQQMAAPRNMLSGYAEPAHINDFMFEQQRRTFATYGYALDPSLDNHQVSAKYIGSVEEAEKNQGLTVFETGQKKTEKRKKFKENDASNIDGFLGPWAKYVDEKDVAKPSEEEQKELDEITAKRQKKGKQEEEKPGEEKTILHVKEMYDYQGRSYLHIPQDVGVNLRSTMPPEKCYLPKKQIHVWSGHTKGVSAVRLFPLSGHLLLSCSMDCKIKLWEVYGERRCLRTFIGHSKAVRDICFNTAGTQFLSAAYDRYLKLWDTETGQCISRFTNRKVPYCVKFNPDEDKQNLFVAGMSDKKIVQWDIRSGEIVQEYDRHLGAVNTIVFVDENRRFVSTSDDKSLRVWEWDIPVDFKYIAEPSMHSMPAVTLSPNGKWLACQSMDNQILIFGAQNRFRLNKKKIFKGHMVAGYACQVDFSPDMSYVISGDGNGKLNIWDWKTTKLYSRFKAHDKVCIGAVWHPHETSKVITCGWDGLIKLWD
UniProt O60293: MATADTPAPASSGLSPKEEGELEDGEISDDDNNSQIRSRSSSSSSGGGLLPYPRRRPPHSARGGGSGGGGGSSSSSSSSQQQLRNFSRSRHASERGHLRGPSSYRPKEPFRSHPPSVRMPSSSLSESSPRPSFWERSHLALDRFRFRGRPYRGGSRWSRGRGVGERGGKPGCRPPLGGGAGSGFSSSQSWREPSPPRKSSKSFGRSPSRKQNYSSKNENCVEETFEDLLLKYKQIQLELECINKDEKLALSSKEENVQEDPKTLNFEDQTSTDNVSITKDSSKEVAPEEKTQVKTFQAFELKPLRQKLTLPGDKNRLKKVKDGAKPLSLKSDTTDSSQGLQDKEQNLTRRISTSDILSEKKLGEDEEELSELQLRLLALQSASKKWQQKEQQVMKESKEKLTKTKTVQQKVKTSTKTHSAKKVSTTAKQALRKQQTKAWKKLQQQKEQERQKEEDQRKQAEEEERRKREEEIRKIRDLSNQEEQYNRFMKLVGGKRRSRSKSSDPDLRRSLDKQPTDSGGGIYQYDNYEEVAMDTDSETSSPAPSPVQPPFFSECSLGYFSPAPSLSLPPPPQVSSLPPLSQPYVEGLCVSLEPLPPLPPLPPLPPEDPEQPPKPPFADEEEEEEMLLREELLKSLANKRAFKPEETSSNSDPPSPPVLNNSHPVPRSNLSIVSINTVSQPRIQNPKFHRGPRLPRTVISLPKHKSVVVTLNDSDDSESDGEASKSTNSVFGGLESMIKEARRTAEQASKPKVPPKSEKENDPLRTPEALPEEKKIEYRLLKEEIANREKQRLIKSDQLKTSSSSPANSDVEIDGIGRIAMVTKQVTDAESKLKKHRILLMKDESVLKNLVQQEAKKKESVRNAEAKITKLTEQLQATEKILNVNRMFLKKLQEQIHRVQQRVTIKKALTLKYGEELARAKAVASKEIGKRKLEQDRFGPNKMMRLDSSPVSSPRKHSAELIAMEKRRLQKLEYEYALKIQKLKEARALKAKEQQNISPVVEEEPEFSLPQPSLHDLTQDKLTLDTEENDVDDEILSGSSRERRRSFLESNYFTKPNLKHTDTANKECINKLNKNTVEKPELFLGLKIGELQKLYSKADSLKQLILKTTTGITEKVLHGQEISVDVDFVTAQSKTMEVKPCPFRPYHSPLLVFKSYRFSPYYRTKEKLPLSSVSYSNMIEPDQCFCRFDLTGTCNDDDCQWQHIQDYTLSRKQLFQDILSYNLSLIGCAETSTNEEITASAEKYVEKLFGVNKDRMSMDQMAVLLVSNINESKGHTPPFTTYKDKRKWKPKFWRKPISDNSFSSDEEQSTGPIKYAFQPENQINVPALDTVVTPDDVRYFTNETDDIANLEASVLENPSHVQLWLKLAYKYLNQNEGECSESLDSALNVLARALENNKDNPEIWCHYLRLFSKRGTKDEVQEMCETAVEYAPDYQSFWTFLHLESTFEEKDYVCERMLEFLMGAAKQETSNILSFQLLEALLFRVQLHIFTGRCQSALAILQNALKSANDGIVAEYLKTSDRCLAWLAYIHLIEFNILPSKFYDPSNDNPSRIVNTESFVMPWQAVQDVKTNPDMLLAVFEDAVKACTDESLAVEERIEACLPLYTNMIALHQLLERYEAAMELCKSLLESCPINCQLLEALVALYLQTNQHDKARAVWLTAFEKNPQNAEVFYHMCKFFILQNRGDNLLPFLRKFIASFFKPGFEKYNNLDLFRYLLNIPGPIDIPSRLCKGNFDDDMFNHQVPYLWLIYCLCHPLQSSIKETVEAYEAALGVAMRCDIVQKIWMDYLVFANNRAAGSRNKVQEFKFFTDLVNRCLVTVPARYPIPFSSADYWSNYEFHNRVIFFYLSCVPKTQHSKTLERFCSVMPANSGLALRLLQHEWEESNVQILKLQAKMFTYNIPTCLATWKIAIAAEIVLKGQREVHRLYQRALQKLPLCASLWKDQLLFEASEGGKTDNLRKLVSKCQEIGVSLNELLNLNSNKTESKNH
UniProt O00231, whole entry: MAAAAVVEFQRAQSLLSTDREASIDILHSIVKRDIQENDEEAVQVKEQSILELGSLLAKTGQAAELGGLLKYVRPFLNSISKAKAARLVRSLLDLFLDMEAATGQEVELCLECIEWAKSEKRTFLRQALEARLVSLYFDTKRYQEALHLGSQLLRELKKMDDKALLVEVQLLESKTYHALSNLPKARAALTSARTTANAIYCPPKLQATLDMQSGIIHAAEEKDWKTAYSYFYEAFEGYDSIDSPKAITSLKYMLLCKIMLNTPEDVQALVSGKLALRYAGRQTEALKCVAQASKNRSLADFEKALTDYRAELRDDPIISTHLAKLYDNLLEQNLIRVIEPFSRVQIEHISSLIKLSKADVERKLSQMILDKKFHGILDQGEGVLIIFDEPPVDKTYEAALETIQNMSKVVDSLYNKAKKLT
UniProt O14925: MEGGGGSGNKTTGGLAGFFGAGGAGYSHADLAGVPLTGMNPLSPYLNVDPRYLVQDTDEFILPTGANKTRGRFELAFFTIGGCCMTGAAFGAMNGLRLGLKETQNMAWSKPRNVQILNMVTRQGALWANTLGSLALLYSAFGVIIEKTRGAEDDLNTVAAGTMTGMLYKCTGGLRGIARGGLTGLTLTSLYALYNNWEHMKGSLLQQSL
UniProt O14929: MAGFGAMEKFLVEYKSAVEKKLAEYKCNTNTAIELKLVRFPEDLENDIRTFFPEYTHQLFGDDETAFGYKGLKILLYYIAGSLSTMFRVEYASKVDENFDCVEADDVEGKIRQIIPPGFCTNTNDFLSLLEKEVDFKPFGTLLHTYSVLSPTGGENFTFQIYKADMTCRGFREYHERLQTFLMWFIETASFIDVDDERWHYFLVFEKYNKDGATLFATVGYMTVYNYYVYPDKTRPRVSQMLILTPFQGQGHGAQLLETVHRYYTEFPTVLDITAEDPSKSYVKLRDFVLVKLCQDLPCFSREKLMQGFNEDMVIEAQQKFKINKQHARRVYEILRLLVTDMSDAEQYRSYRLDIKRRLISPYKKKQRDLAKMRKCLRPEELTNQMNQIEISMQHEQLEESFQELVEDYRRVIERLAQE

Compound: Nc1nc2c(ncn2[C@@H]2O[C@H](COP(=O)(O)OP(=O)(O)OP(=O)(O)O)[C@@H](O)[C@H]2O)c(=O)[nH]1 [guanosine triphosphate]
Experiment: NP40-soluble protein abundance relative to vehicle (solubility fold change) (ratio); higher = more soluble protein in presence of GTP
Method in brief: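 Each value is a fold change relative to the detergent-processed vehicle, calculated per replicate from vsn-normalised intensities. Jurkat crude lysate received eight concentrations (0.1 to 10 mM) for 10 min at room temperature and 3 min at 37 °C, then was solubilised in 0.8% NP40 with benzonase (60 min, 4 °C). The ultracentrifuged supernatant was TMT-labelled and run by LC-MS/MS in three independent experiments.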

| Target | NP40-soluble protein abundance (concentration: 0.1mM) | NP40-soluble protein abundance (concentration: 0.5mM) | NP40-soluble protein abundance (concentration: 1mM) | NP40-soluble protein abundance (concentration: 2mM) | NP40-soluble protein abundance (concentration: 4mM) | NP40-soluble protein abundance (concentration: 6mM) | NP40-soluble protein abundance (concentration: 8mM) | NP40-soluble protein abundance (concentration: 10mM) |
| --- | --- | --- | --- | --- | --- | --- | --- | --- |
| UniProt O15226 and related entries | 0.98 ± 0.03 | 0.975 ± 0.035 | 0.972 ± 0.032 | 1.01 ± 0.018 | 1.02 ± 0.059 | 1.07 ± 0.043 | 1.12 ± 0.078 | 1.14 ± 0.056 |
| MRPS14 (UniProt O60783) | 1.07 ± 0.1 | 1.06 ± 0.13 | 1.28 ± 0.19 | 1.4 ± 0.33 | 1.48 ± 0.38 | 1.43 ± 0.38 | 1.38 ± 0.32 | 1.48 ± 0.41 |
| HNRNPR (UniProt O43390) | 1.01 ± 0.033 | 1.08 ± 0.077 | 1.06 ± 0.11 | 1.14 ± 0.18 | 1.17 ± 0.2 | 1.19 ± 0.2 | 1.18 ± 0.19 | 1.17 ± 0.16 |
| UniProt O43683 and related entries | 0.943 ± 0.14 | 1 ± 0.023 | 1.05 ± 0.075 | 0.932 ± 0.16 | 0.985 ± 0.093 | 0.952 ± 0.2 | 0.987 ± 0.077 | 0.929 ± 0.1 |
| POLRMT (UniProt O00411) | 1.02 ± 0.11 | 1.04 ± 0.039 | 0.998 ± 0.063 | 1.06 ± 0.11 | 1.01 ± 0.074 | 0.946 ± 0.1 | 0.95 ± 0.036 | 0.966 ± 0.069 |
| UniProt O14967 and related entries | 1.04 ± 0.029 | 0.977 ± 0.031 | 0.979 ± 0.1 | 0.951 ± 0.098 | 0.965 ± 0.07 | 0.913 ± 0.071 | 0.965 ± 0.12 | 0.927 ± 0.11 |
| UniProt O60508 and related entries | 1.07 ± 0.031 | 1.1 ± 0.017 | 1.09 ± 0.022 | 1.072 ± 0.0076 | 1.05 ± 0.034 | 1.07 ± 0.053 | 1.11 ± 0.013 | 1.08 ± 0.042 |
| UniProt O60293 and related entries | 0.995 ± 0.041 | 1.02 ± 0.046 | 1.08 ± 0.08 | 1.1 ± 0.097 | 1.12 ± 0.1 | 1.13 ± 0.095 | 1.16 ± 0.096 | 1.17 ± 0.12 |
| PSMD11 (UniProt O00231) | 0.985 ± 0.019 | 0.991 ± 0.013 | 1.02 ± 0.033 | 1.02 ± 0.087 | 1.04 ± 0.089 | 1.02 ± 0.11 | 1.03 ± 0.092 | 0.967 ± 0.11 |
| UniProt O00148 | 1.05 ± 0.053 | 1.03 ± 0.073 | 0.931 ± 0.03 | 0.931 ± 0.071 | 0.933 ± 0.054 | 0.949 ± 0.046 | 0.899 ± 0.051 | 0.865 ± 0.085 |
| UniProt O43776 and related entries | 1.04 ± 0.018 | 1.06 ± 0.036 | 0.966 ± 0.015 | 0.955 ± 0.033 | 0.946 ± 0.037 | 0.929 ± 0.025 | 0.928 ± 0.028 | 0.905 ± 0.067 |
| TRIM38 (UniProt O00635) | 1.02 ± 0.12 | 1.04 ± 0.12 | 0.963 ± 0.022 | 0.97 ± 0.12 | 0.971 ± 0.062 | 0.962 ± 0.056 | 0.918 ± 0.044 | 0.943 ± 0.019 |
| UniProt O43156 | 1.02 ± 0.069 | 1.02 ± 0.085 | 0.951 ± 0.06 | 0.974 ± 0.1 | 0.96 ± 0.087 | 0.926 ± 0.067 | 0.887 ± 0.035 | 0.911 ± 0.044 |
| TIMM23 (UniProt O14925) | 0.979 ± 0.016 | 0.902 ± 0.037 | 0.856 ± 0.016 | 0.892 ± 0.02 | 0.904 ± 0.043 | 0.877 ± 0.026 | 0.838 ± 0.046 | 0.898 ± 0.042 |
| UniProt O60825 and related entries | 1.06 ± 0.031 | 1.05 ± 0.033 | 1 ± 0.039 | 0.981 ± 0.033 | 0.977 ± 0.053 | 0.962 ± 0.069 | 0.938 ± 0.027 | 0.917 ± 0.054 |
| ZNF609 (UniProt O15014) | 1.01 ± 0.058 | 1 ± 0.031 | 1.05 ± 0.015 | 1.07 ± 0.071 | 1.06 ± 0.04 | 1.08 ± 0.037 | 1.1 ± 0.076 | 1.13 ± 0.095 |
| HAT1 (UniProt O14929) | 1.05 ± 0.057 | 1.03 ± 0.051 | 0.942 ± 0.017 | 0.948 ± 0.081 | 0.939 ± 0.05 | 0.914 ± 0.055 | 0.893 ± 0.051 | 0.869 ± 0.1 |
| UniProt O00592 and related entries | 0.947 ± 0.056 | 0.883 ± 0.0096 | 0.998 ± 0.045 | 1.01 ± 0.033 | 0.948 ± 0.02 | 0.981 ± 0.035 | 0.913 ± 0.11 | 1.01 ± 0.031 |

An excerpt of the results above:

| Target | NP40-soluble protein abundance (concentration: 0.1mM) | NP40-soluble protein abundance (concentration: 0.5mM) | NP40-soluble protein abundance (concentration: 1mM) | NP40-soluble protein abundance (concentration: 2mM) | NP40-soluble protein abundance (concentration: 4mM) | NP40-soluble protein abundance (concentration: 6mM) | NP40-soluble protein abundance (concentration: 8mM) | NP40-soluble protein abundance (concentration: 10mM) |
| --- | --- | --- | --- | --- | --- | --- | --- | --- |
| UniProt O43683 and related entries | 0.943 ± 0.14 | 1 ± 0.023 | 1.05 ± 0.075 | 0.932 ± 0.16 | 0.985 ± 0.093 | 0.952 ± 0.2 | 0.987 ± 0.077 | 0.929 ± 0.1 |
| POLRMT (UniProt O00411) | 1.02 ± 0.11 | 1.04 ± 0.039 | 0.998 ± 0.063 | 1.06 ± 0.11 | 1.01 ± 0.074 | 0.946 ± 0.1 | 0.95 ± 0.036 | 0.966 ± 0.069 |
